Source: PubChem BioAssay AID2417 (National Center for Advancing Translational Sciences (NCATS), 2010)
Out of some 140,000 compounds screened, about 4,300 (3.1%) were called active. Inconclusive results, whose numbers are uncertain, are shown with a selection of clear calls.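 Rule for the calls: active = readout at or below -70, meaning at least 70% loss of cells showing the perinucleolar compartment, a nuclear body marking cancer cells; inconclusive = readout between -30 and a set limit; inactive = the rest.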

test: High Content Assay for Compounds that inhibit the Assembly of the Perinucleolar Compartment; conditions: PC3M PTB-GFP, PNC prevalence imaging, 16 h; at 10 µM; active compounds read low;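 note: plate controls were DMSO wells for no effect and camptothecin positive control wells for full effect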
Procedure, shortened: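 Read-out is percentage of cells bearing a perinucleolar compartment, from automated 20x imaging of fixed, Hoechst-stained PC3M PTB-GFP cells. Cells were seeded 4 h, then exposed 16 h to compound (23 nl of library stock) in duplicate plates.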

Compound | activity change (PNC), negative = inhibition
CCOc1ccc2[nH]c(=O)c(CN(CCO)Cc3nnnn3CCc3ccccc3)cc2c1 | active: -85.1%
CCOC(=O)C1CCCN(C(=O)C2CCN(S(=O)(=O)N3CCC4(CC3)OCCO4)CC2)C1 (configuration not stated) | inconclusive: -42.4%
COc1ccc(C2CC(C(F)(F)F)n3nc(C(=O)Nc4ccc5c(c4)OCO5)cc3N2)cc1 (configuration not stated) | inconclusive: -39.9%
CCC(=O)Nc1cccc(NC(=O)c2ccccc2Br)c1 | inactive: -10.1%
Cc1nc2cc(NC(=O)N3CC4(C)CC3CC(C)(C)C4)ccc2n1C (configuration not stated) | inconclusive: -61%
O=C(CNC1C(=O)Nc2ccccc21)Sc1ccccc1 (configuration not stated) | inconclusive: -51.3%
c1ccc(C2=NNC(=NCc3ccc4c(c3)OCO4)SC2)cc1 | inconclusive: -58.9%
O[C@H]1COC2C1OC[C@@H]2O (some centres not stated) | inconclusive: -46%
CC(C)C(NC(=O)c1ccccc1)C(=O)NC1=NCCS1 (configuration not stated) | inconclusive: -60.8%
COCCN1C(=O)C(CC(=O)Nc2ccc(C(=O)O)cc2)SC1=Nc1ccccc1 (configuration not stated) | inconclusive: -70.9%
CCOC(=O)C(CC)Sc1ncnc2nc[nH]c12 (configuration not stated) | active: -100%
CN(CC(=O)Nn1cnnc1)S(=O)(=O)c1ccccc1 | inactive: 36.9%
CCN1CCN(C(c2cccs2)C(C)NC(=O)NC2CCCCC2)CC1 (configuration not stated) | inconclusive: -32.1%
CN(c1nc2ccccc2n2c(-c3ccco3)nnc12)S(=O)(=O)c1ccccc1 | inconclusive: -37.6%
COc1ccc(/C(C#N)=C/c2c(-c3ccc(Cl)cc3)nc3c(C)cccn23)cc1 | inactive: 4.47%
CCCC(=O)Nc1nc(C)c(-c2csc(Nc3ccccc3C)n2)s1 | inactive: 67.8%
CN(Cc1ccccc1)C(=O)c1ccc2c(c1)OCCO2 | inactive: -26.6%
CCOC(=O)c1[nH]c2ccccc2c1N=C(C)N(CC)CC | inconclusive: -38.9%
COc1ccc(-c2c3c(=O)n(C)c(=O)n(C)c3cn2-c2cccc(OC)c2)cc1 | inconclusive: -34%

Compound | activity change (PNC), negative = inhibition
Cc1ccccc1N(CC(=O)NC1CCCC1)C(=O)C1(C)CC(=O)N=C2C=CC=CN21 (configuration not stated) | active: -116%
Cc1cc(N(CC(=O)NC(C)C)S(C)(=O)=O)ccc1Br | inactive: -29.7%
COc1ccc(C(=O)Nc2nc3ccccc3[nH]2)cc1OC | inactive: 4.92%
COc1ccc(C(=O)CN2CCN(S(=O)(=O)c3cccc([N+](=O)[O-])c3)CC2)cc1OC | inconclusive: -31.2%
CCOc1cc(NC(=S)Nc2cccc(OC)c2)c(OCC)cc1NC(=O)C1CC1 | active: -106%
CCOC(=O)C1=C(C)NC(=O)NC1c1ccc2c(c1)OCCO2 (configuration not stated) | active: -100%
C#CCn1c(=NC(=O)c2ccc(S(=O)(=O)N3CCc4ccccc4C3)cc2)sc2cc(S(N)(=O)=O)ccc21 | active: -134%
CCOC(=O)c1c(-c2ccc(F)cc2)csc1NC(=O)c1c(-c2ccccc2)noc1C | inconclusive: -60.3%
CC(C(=O)NCc1cccs1)N1C(=O)c2ccccc2C1=O (configuration not stated) | inactive: -1.66%
COC(=O)C1=C(C)NC(C)=C(C(=O)OC)C1c1ccc(OC(=O)c2ccco2)cc1 | inconclusive: -68.6%
COc1ccc(NC(=O)CCC(=O)c2cccs2)cc1S(=O)(=O)Nc1ccccc1Cl | inconclusive: -63.8%
CCOc1cc2[nH]c(=O)n(CCCCC(=O)N3CCCCCC3)c(=O)c2cc1OCC | active: -100%
Cc1ccc(C2=N/C(=C\N3CCCCC3)C(=O)O2)cc1 | inactive: -17.6%
CCOC(=O)CSc1nc2c(sc(=S)n2-c2ccccc2)c(=O)[nH]1 | inconclusive: -50.8%
COc1ccc(/C(O)=C2\C(=O)C(=O)N(CCN(C)C)C2c2cccc(OC)c2OC)cc1 (configuration not stated) | inconclusive: -48.6%
C=CCOC(=O)C1C(=O)CC(C)(O)C(C(=O)OCC=C)C1c1ccc(OC)cc1 (configuration not stated) | inconclusive: -41.4%
O=C(Nc1ccc(Cl)cc1F)c1ccc(COc2c(F)c(F)c(F)c(F)c2F)o1 | inconclusive: -37.2%
COc1ccc(NC(=O)CSc2[nH]c(=O)cc(C)c2C#N)cc1OC | inconclusive: -57%
COc1nc(OCCNC(=O)Nc2ccccc2)nc(N(C)C)n1 | inconclusive: -46.1%

Some of the entries so far, comma-delimited:
Compound,"activity change (PNC), negative = inhibition"
COc1ccc(C(=O)CN2CCN(S(=O)(=O)c3cccc([N+](=O)[O-])c3)CC2)cc1OC,inconclusive: -31.2%
CCOc1cc(NC(=S)Nc2cccc(OC)c2)c(OCC)cc1NC(=O)C1CC1,active: -106%
CCOC(=O)C1=C(C)NC(=O)NC1c1ccc2c(c1)OCCO2 (configuration not stated),active: -100%
C#CCn1c(=NC(=O)c2ccc(S(=O)(=O)N3CCc4ccccc4C3)cc2)sc2cc(S(N)(=O)=O)ccc21,active: -134%
CCOC(=O)c1c(-c2ccc(F)cc2)csc1NC(=O)c1c(-c2ccccc2)noc1C,inconclusive: -60.3%
CC(C(=O)NCc1cccs1)N1C(=O)c2ccccc2C1=O (configuration not stated),inactive: -1.66%
COC(=O)C1=C(C)NC(C)=C(C(=O)OC)C1c1ccc(OC(=O)c2ccco2)cc1,inconclusive: -68.6%
COc1ccc(NC(=O)CCC(=O)c2cccs2)cc1S(=O)(=O)Nc1ccccc1Cl,inconclusive: -63.8%
CCOc1cc2[nH]c(=O)n(CCCCC(=O)N3CCCCCC3)c(=O)c2cc1OCC,active: -100%
Cc1ccc(C2=N/C(=C\N3CCCCC3)C(=O)O2)cc1,inactive: -17.6%
CCOC(=O)CSc1nc2c(sc(=S)n2-c2ccccc2)c(=O)[nH]1,inconclusive: -50.8%
COc1ccc(/C(O)=C2\C(=O)C(=O)N(CCN(C)C)C2c2cccc(OC)c2OC)cc1 (configuration not stated),inconclusive: -48.6%
C=CCOC(=O)C1C(=O)CC(C)(O)C(C(=O)OCC=C)C1c1ccc(OC)cc1 (configuration not stated),inconclusive: -41.4%
O=C(Nc1ccc(Cl)cc1F)c1ccc(COc2c(F)c(F)c(F)c(F)c2F)o1,inconclusive: -37.2%
COc1ccc(NC(=O)CSc2[nH]c(=O)cc(C)c2C#N)cc1OC,inconclusive: -57%

Following part.

Compound | activity change (PNC), negative = inhibition
O=C(/C=C/Nc1ccc(Cc2ccc(N/C=C/C(=O)C(F)(F)F)cc2)cc1)C(F)(F)F | active: -85.5%
CC(=O)Cc1nsc(Nc2ccc3c(c2)OCCO3)n1 | inconclusive: -75.1%
COc1cc(/C=N/N=C2/NC(=O)C(c3ccccc3)S2)ccc1O (configuration not stated) | inconclusive: -60.9%
O=C(CCCC(=O)N(CC(=O)NC1CCCC1)C1CCCC1)Nc1ccccn1 | active: -123%
CCOC(=O)N1CCN(C(=O)c2cnn3ccccc23)CC1 | inconclusive: -34%
O=C(CCCOc1ccccc1)Nc1ccncc1 | inactive: -23.4%
O=C(O)c1cc(-c2ccc(/C=N/Nc3ccc(Cl)cc3)o2)ccc1Cl | inactive: 73.8%
O=C(COc1ccccc1)OCc1csc(Nc2ccccc2)n1 | inconclusive: -62.8%
O=C(CSCc1ccccc1Cl)NN=C1CCCCCC1 | inconclusive: -55.2%
CCOC(=O)CNS(=O)(=O)c1ccc(C)cc1 | active: -113%
Cc1ccc2c(N)c(C)ccc2c1 | inactive: 6.16%
COc1cc2c(cc1NC(=O)CSc1nnc(Cc3cccs3)n1Cc1ccco1)oc1ccccc12 | inactive: 21.1%
COc1cccc(-c2nc(Oc3cc(C)cc(C)c3)c3ccccc3n2)c1O | inconclusive: -73.4%
CCc1cc2c(=O)n(Cc3ccco3)c(SCc3c(C)noc3C)nc2s1 | inconclusive: -44.5%
CCC(C)NC(=S)N1CCN(C(c2ccccc2)c2ccccc2)CC1 (configuration not stated) | inactive: -2.39%
COCC(=O)Nc1cc(OC)cc(OC)c1 | inconclusive: -35.2%
COc1cc2c(cc1NC(=O)CSCC(=O)O)oc1ccccc12 | active: -127%
CCOC(=O)c1c(NC(=O)CCC(=O)N2CCOCC2)sc2c1CC(C)(C)OC2 | inconclusive: -34.5%
CN(c1cccc(Cl)c1)S(=O)(=O)c1cccc(C(=O)Nc2nc3ccccc3[nH]2)c1 | inconclusive: -69.8%
